In patent US20200270365A1:
No constants are given. Whether binding was seen depends on the method and setting. A result given as binding can be weak or reduced; the word gives no strength.

What was measured:
[1] = target: PCSK9 with His-tag: PCSK9-His6 (human); assay: SPR (Biacore)
[2] = target: PCSK9-D374Y mutant protein with His-tag: PCSK9-D374Y-His6 (human); assay: SPR (Biacore)
[3] = target: PCSK9-D374Y mutant protein with His-tag: PCSK9-D374Y-His6 (human); assay: looks back on the results of Example 6

Measured: binding

B1: humanized antibody h011-3 (antibody, V domains shown)
VH: QVQLVQSGAEVKKPGASVKVSCKASGYTFTGYTIHWVRQAPGQGLEWMGYINPSSTYTKFNQKFKDRVTMTRDTSISTAYMELSRLRSDDTAVYYCARERIYSNYWFFDVWGQGTTVTVSS
VL: DIVMTQSPSSLSASVGDRVTITCKASQNVYTAVAWYQQKPGKSPKLLIYSASNRYTGVPSRFSGSGSGTDFTLTISSLQPEDFATYFCQQYSSYPYTFGGGTKVEIK
binds: [1] | [2] | [3]
